Turning to `NCCC[C@H](N)C(=O)O`, the logP (as a rule, the decadic logarithm of the partition coefficient of the neutral form, usually between octanol and water) is -4.22.

The record behind these values is the SangsterLogP compilation.
